Measured values: patent US10130710B2 (priority 2014, dated 2018)
Where a name gives a salt, the structure may show the parent alone.

Format: physicochemical
Excerpt: Incidentally, the octanol-water partition coefficient herein is obtained by adding a target component to be measured into a flask charged with n-octanol and an aqueous buffer of pH 7 or water, shaking the resultant, and performing calculation, in accordance with the following equation, based on active ingredient concentrations in respective phases. Octanol-water partition coefficient=Log10(concentration in octanol phase/concentration in aqueous phase)

Structure (SMILES): COc1cc2c(cc1OC)C(=O)C(CC1CCN(Cc3ccccc3)CC1)C2 (stereo not shown) [donepezil hydrochloride, reference compound]
- water-octanol partition coefficient: 4.3
